Source: PubChem BioAssay AID540275 (National Center for Advancing Translational Sciences (NCATS), 2011)
In all, about 320,000 compounds went through this assay and about 620 (0.19%) were called active. The shares of active, inactive and inconclusive entries below differ from those in the screen. Rule as the data show it: active = activation above about 80%; inconclusive = between about 30% and that limit; inactive = weaker than that.
Also: 0% is about no effect.

Sequences of proteins named here, by UniProt entry; tags and fusion partners are left off.
UniProt Q8NER1, whole entry, looked up: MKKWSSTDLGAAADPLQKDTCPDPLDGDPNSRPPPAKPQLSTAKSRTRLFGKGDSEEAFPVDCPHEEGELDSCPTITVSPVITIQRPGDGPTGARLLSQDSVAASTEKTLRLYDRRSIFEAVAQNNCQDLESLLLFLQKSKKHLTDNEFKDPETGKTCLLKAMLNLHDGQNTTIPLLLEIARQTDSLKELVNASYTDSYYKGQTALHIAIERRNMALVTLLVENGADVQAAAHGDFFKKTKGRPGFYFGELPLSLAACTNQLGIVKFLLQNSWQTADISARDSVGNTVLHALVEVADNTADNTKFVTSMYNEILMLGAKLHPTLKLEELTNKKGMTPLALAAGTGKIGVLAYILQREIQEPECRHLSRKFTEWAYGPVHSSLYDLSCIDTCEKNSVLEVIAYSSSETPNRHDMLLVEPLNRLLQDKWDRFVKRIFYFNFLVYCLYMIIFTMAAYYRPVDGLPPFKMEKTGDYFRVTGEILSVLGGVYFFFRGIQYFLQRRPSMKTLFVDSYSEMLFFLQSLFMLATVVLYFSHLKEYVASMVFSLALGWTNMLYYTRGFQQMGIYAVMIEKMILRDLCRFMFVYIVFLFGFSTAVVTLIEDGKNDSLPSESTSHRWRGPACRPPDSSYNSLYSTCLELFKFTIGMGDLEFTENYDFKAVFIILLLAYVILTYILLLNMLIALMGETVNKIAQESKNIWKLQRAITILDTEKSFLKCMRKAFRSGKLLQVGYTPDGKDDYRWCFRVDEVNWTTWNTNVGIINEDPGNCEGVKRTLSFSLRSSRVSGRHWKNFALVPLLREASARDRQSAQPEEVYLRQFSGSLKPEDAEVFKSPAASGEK

Each compound was assayed against Transient receptor potential cation channel subfamily V member 1 (Homo sapiens) (UniProt Q8NER1) (assay: HTS Assay for Compounds that Act as Agonists of the Vanilloid Receptor 1). Conditions: TRPV1-expressing cells, Fluo-8 calcium influx, agonist mode; at 8.33 µM, hits give high values.
Summary of the method: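 TRPV1-expressing cells were cultured overnight at 35.5C and loaded with Fluo-8 calcium dye for 40 to 90 min at room temperature. After a 10 s baseline, compound was added and calcium influx was read kinetically for 3 min (ex 480/em 520 nm).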
In the case of `Cc1cc(Cl)c2oc(C(=O)NCC(C)(C)N3CCOCC3)c(C)c2c1`, the activation was inconclusive: 42.1%.
For `Fc1ccc2c(-c3cccc(C(F)(F)F)c3)c(-c3ccccc3)ncc2c1`, the activation was inconclusive: 32.4%.
With `CC(C)CNC(=O)c1oc2ccccc2c1COc1ccccc1` the activation was inconclusive: 58.6%.
With `COc1cccc(NC(=O)CC2S/C(=N\S(=O)(=O)c3ccccc3)N(c3ccccc3)C2=O)c1` (stereo not drawn) the activation was inactive: 2.29%.
With `Cc1ccc(/C=N/NC(=O)c2cc3c(s2)CCCC3)o1` the activation was inconclusive: 63%.
With `COc1ccc(NC(=O)c2cccc(F)c2)cc1Cl` the activation was inconclusive: 57.2%.
`c1cnc(SCCOc2cccc3ccccc23)nc1` was tested, and the activation was inconclusive: 33.1%.
With `Cc1cc(C)cc(NC(=O)OCCN2CCN(Cc3ccccc3)CCC2=O)c1` the activation was inactive: 0.43%.
For `CCCNc1nc(Nc2ccc(C)cc2)nc(N2CCCC2)n1`, the activation was inconclusive: 58.7%.
With `CCCCn1c(SCC(N)=O)nc2sc3c(c2c1=O)CCC3` the activation was inconclusive: 44.8%.
With `Cc1ccc(C(=O)NNC(=O)C2CCN(c3ncccn3)CC2)cc1` the activation was inactive: 0.0486%.
For `CC(=O)NCCn1c(SCc2ccccc2F)nc2ccccc2c1=O`, the activation was inconclusive: 58.3%.
In the case of `CCc1ccc(NC(=O)c2cc(CC(C)C)on2)cc1`, the activation was inconclusive: 51.4%.
`Cc1nc(N2CCN(S(=O)(=O)c3ccccc3C#N)CC2)c2c(-c3cccs3)csc2n1` was tested, and the activation was inactive: 1.2%.
In the case of `O=C(c1ccccc1CCc1ccccc1)N1CCN(c2ccccn2)CC1`, the activation was inconclusive: 50%.
`CC(=O)CCc1oc2ccc(C)cc2c1-c1ccccc1` was tested, and the activation was inconclusive: 32.4%.
For `CCOC(=O)c1cnc(-c2ccccc2)nc1-c1ccccc1`, the activation was inconclusive: 49.3%.
In the case of `O=c1ccc(-c2nc3ccccc3n2Cc2ccccc2Cl)c[nH]1`, the activation was inconclusive: 36.7%.
With `COc1ccccc1OCC(=O)N/N=C/c1cccc2cccnc12` the activation was inactive: -1.49%.
In the case of `CC(OC(=O)CCN=C1NS(=O)(=O)c2ccccc21)C(=O)Nc1ccc(F)c(F)c1F` (stereo not drawn), the activation was inactive: 4.53%.
`COc1ccc(-c2nnn(CC(=O)N3CCN(c4ccc(F)cc4)CC3)n2)cc1` was tested, and the activation was inactive: -0.169%.
In the case of `COC(=O)CSc1nc2cc(Cl)ccc2c(=O)n1C1CCCC1`, the activation was inconclusive: 56.6%.
For `Brc1ccc(-c2ccc(/C=N/Nc3nc(N4CCOCC4)nc(N4CCOCC4)n3)o2)cc1`, the activation was inactive: 1.15%.
In the case of `COc1ccc(CCNC(=O)Nc2cccc([N+](=O)[O-])c2)cc1`, the activation was inconclusive: 48.9%.
In the case of `COc1ccc2nc(C)c3c(c2c1)OC(C(C)(Cl)Br)C3` (stereo not drawn), the activation was inconclusive: 40%.
In the case of `Cn1cccc1C(=O)NCCc1ccc(Cl)cc1`, the activation was inconclusive: 34.3%.
With `Cc1ccc(/C=N/Nc2nc(N3CCCCC3)nc(N3CCCCC3)n2)o1` the activation was active: 84.9%.
For `Cc1cccc(COc2ccccc2C(=O)NC2CCC(O)CC2)c1` (stereo not drawn), the activation was inconclusive: 67.1%.
`Cc1ccc(-c2nc(NC(=O)CSc3ncn[nH]3)ns2)cc1` was tested, and the activation was inconclusive: 50.6%.
For `O=S(=O)(c1c(F)cccc1F)N1CCN(C(=S)NCc2ccc3c(c2)OCO3)CC1`, the activation was inconclusive: 42.1%.
With `COc1ccc(OC)c(CC(=O)N2CCc3cc(OC)c(OC)cc3C2)c1` the activation was inactive: 1.13%.
For `COc1ccc(C(=O)NCC2(c3ccc(OC)c(OC)c3)CCCC2)c(OC)c1`, the activation was inconclusive: 46.7%.
For `Cc1ccc(OCCNC(=O)c2ccccc2O)cc1`, the activation was inconclusive: 60.9%.
For `CCn1cc(C2=NC(C)(C)CO2)c2ccccc21`, the activation was inactive: 3.05%.
For `CC(Cc1ccccc1)C(=O)Nc1ccc(Br)cc1` (stereo not drawn), the activation was inconclusive: 75.9%.
In the case of `COc1ccc(-c2cccc(NC(=O)c3cccs3)c2)nn1`, the activation was inactive: 28.2%.
`CCOc1cc(C(=S)N2CCCC2)ccc1OC` was tested, and the activation was inactive: 1.02%.
In the case of `COc1ccc(C2C(C(C)=O)=C(C)N=c3s/c(=C\c4cc(C)n(C)c4C)c(=O)n32)c(OC)c1` (stereo not drawn), the activation was inconclusive: 31.6%.
`COc1ccc(-n2c(C)cc(C(=O)NC3CCCCC3)c2C)cc1` was tested, and the activation was inconclusive: 66.9%.
For `Cc1ccc(-c2nnc(N3CCCCC3)c3ccccc23)cc1`, the activation was inconclusive: 39%.
`CCC(CC)C(=O)Nc1c(C(=O)N2CCN(c3ccccc3)CC2)oc2ccccc12` was tested, and the activation was inconclusive: 33.8%.
In the case of `O=c1c2ccccc2[nH]c(=S)n1-c1cccc(S(=O)(=O)N2CCCC2)c1`, the activation was inactive: 2.91%.
`Cc1ccc(Nc2ncc3c(n2)CC(C)CC3=O)c(C)c1` (stereo not drawn) was tested, and the activation was inconclusive: 36.5%.
For `Brc1ccc2ncnc(Nc3cccc4ccccc34)c2c1`, the activation was inconclusive: 39.7%.
`CCc1ccc2[nH]c(=O)c(CN(CC3CCCO3)C(=S)NCc3ccco3)cc2c1` (stereo not drawn) was tested, and the activation was inactive: -3.16%.
`Cc1ccc(S(=O)(=O)N2CCCC(C(=O)NC3CCCC3)C2)cc1Cl` (stereo not drawn) was tested, and the activation was inconclusive: 39.9%.
With `Cc1cc2ncn(CCC(=O)NC(C)(C)C)c2cc1C` the activation was inconclusive: 49.5%.
In the case of `c1ccc(COc2ccc(Nc3ncnc4nc[nH]c34)cc2)cc1`, the activation was inconclusive: 31.5%.
For `c1ccc(Cn2c(CN3CCCC3)nc3ccccc32)cc1`, the activation was inactive: 4.99%.
In the case of `CCc1nn(CC(=O)NCCCN2CCN(C)CC2)c(=O)c2cc3sccc3n12`, the activation was inactive: 0.764%.
For `CCCn1c(SCC(=O)NC(C)C)nc2sc3c(c2c1=O)CCC3`, the activation was inconclusive: 30.2%.
With `Cc1cnn(-c2nc(-c3cccs3)cc(C(F)(F)F)n2)c1` the activation was inconclusive: 43.9%.
`COc1ccc(SCC(=O)c2cc(C)c(OC(=S)N(C)C)c(C)c2)cc1` was tested, and the activation was inconclusive: 45.8%.
For `CCOC(=O)/C(C(N)=NCc1ccco1)=C(/O)c1ccccc1`, the activation was inconclusive: 34.3%.
For `COc1ccc(-c2nc3cnccn3c2NCc2ccccc2)cc1SC1CCCCC1`, the activation was inconclusive: 48.9%.
`O=C(NCCc1ccccc1)c1cccc(S(=O)(=O)N2CCCCC2)c1` was tested, and the activation was inconclusive: 45%.
With `O=C(Nc1ccccc1)c1cccc(C(F)(F)F)c1` the activation was inconclusive: 44.8%.
For `Cc1cc(/C=C(\C#N)C(=O)NC2CCCCCC2)c(C)n1C`, the activation was inactive: 15.4%.
With `CCOC(=O)N1CCc2c(sc(NC(=O)Cc3ccccc3)c2C(=O)c2ccc(OC)cc2)C1` the activation was inconclusive: 42.6%.
`CSc1ccccc1NC(=O)CSCc1ccc(C)cc1` was tested, and the activation was inconclusive: 32.7%.
`O=C(Nc1ccc(OC(F)(F)F)cc1)C1CC(c2ccc(F)cc2)=NO1` (stereo not drawn) was tested, and the activation was inconclusive: 43.2%.
`Cc1ccc2[nH]c(C(=O)N/N=C/c3ccccc3O)c(C)c2c1` was tested, and the activation was inconclusive: 38.3%.
In the case of `CN(CC(=O)Nc1ccc(Cl)c(C(F)(F)F)c1)C(=O)c1cn2ccccc2n1`, the activation was inconclusive: 52.4%.
With `O=C(Nc1ccc(Br)cc1)N1CCc2ccccc2C1` the activation was inconclusive: 64.4%.
With `CC(C)Oc1ccc(NC(=O)c2ccncc2)cc1` the activation was active: 85.8%.
With `CCCc1cc(=O)oc2c(CN3CCN(C)CC3)c(O)c(Cl)cc12` the activation was inactive: 1.33%.
`COc1cc2[nH]c(=S)nc(NCc3ccccc3)c2cc1OC` was tested, and the activation was inactive: 0.177%.
With `O=C(Nc1ccc(Cn2cccn2)cc1)c1ccc(COc2ccccc2Br)cc1` the activation was inconclusive: 54.5%.
With `CC(C)c1ccc(C(O)Cc2nc3ccccc3n2C)cc1` (stereo not drawn) the activation was inconclusive: 32%.
In the case of `CC(C)CCCC(C)NC(=O)c1cc(S(=O)(=O)N2CCCCC2)ccc1N1CCOCC1` (stereo not drawn), the activation was inconclusive: 58%.
With `CCOC(=O)C(C(=O)OCC)C1N=C(N)N=C2Oc3ccccc3N21` (stereo not drawn) the activation was inconclusive: 31.8%.
In the case of `Cc1ccc2c(CN(C)Cc3cccc(F)c3)cc(=O)oc2c1C`, the activation was inconclusive: 45.6%.
With `Cc1ccc(Cn2nnc3c(=O)[nH]c(C4CCN(C(=O)c5cccs5)CC4)nc32)cc1` the activation was inactive: 1.31%.
`O=C1CC(c2ccccc2)CC(O)=C1C=Nc1ccccc1` (stereo not drawn) was tested, and the activation was inconclusive: 36.6%.
`Cc1ccc(C(=O)NC(=S)Nc2ccccc2C(F)(F)F)cc1` was tested, and the activation was inactive: 0.0808%.
`CC1SCC(NC(=O)c2ccc(Cl)cc2)CS1` (stereo not drawn) was tested, and the activation was inconclusive: 40.1%.
With `Cc1c(C(=O)OC2CCCC2C)[nH]c2c1C(=O)CCC2` (stereo not drawn) the activation was inconclusive: 69.6%.
For `Cc1ccc(C(=O)NCC(=O)NCCCc2ccccc2)cc1`, the activation was inactive: -0.78%.
`Cc1ccc(OCCNC(=O)Cc2ccc(F)cc2)cc1` was tested, and the activation was active: 84.3%.
In the case of `O/N=C/c1cn(-c2ccccc2)nc1-c1ccccc1`, the activation was inconclusive: 49%.
`COc1ccc(-c2cc3c(=O)n(CC(=O)NCc4cccnc4)nc(C)n3n2)cc1` was tested, and the activation was inconclusive: 72.6%.
For `CCOc1ccc(NC(=O)N2CCC(n3nnc4ccccc43)CC2)cc1`, the activation was inconclusive: 73.6%.
With `Cc1cccc(N2CCN(C(=O)c3ccncc3)CC2C)c1` (stereo not drawn) the activation was inconclusive: 31.8%.
With `N#CC(Sc1ccccn1)c1ccc(Cl)cc1` (stereo not drawn) the activation was inconclusive: 37.4%.
`C[C@@]12C(=O)N(Cc3ccccc3)CC(=O)N1[C@H]1c3ccccc3OC[C@@H]1[C@@H]2c1ccccc1` was tested, and the activation was inconclusive: 46.8%.
`CC(C)(C)C(=O)CSc1ncnc2c1cnn2Cc1ccccc1` was tested, and the activation was active: 90.2%.
For `O=C(CN1CCN(S(=O)(=O)c2ccc(Cl)cc2)CC1)Nc1ccc(F)cc1F`, the activation was inactive: 8.21%.
For `O=C(N/N=C/C=C\c1ccco1)c1cccnc1`, the activation was inactive: 0.51%.
In the case of `Cc1cc(C(=O)N2CCC(Cc3ccccc3)CC2)c(C)o1`, the activation was inconclusive: 40.3%.
With `Cc1ccc(N2CCN(C(=O)NC3CCCCC3)CC2C)cc1` (stereo not drawn) the activation was inconclusive: 75.6%.
`COCc1ccc(C(=O)N2CCCC(Nc3ccc(F)c(F)c3)C2)s1` (stereo not drawn) was tested, and the activation was inconclusive: 64.4%.
In the case of `O=c1cc2c(nn1Cc1cccc([N+](=O)[O-])c1)-c1ccccc1CC2`, the activation was inconclusive: 50.6%.
With `CC(=O)NCCc1nc2ccccc2n1Cc1cc(C)ccc1C` the activation was inconclusive: 72.6%.
